Here are results for 1 molecule from article PMC8786845.

Chains of the proteins cited; added tags and fusions are not shown. Residues count along the entry.
UniProt P26951, residues 19-378: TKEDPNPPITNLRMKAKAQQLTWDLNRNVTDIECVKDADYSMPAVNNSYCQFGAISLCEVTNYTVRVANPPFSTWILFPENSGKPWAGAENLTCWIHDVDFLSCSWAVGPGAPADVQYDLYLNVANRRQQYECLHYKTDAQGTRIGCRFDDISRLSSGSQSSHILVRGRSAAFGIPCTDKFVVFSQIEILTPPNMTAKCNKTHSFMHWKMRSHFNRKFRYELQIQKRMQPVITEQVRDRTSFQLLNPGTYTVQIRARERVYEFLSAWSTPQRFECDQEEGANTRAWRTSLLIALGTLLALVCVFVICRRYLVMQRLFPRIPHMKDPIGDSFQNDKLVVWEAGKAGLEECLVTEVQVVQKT

No constants are given. Whether binding was seen depends on the method and setting. Binding seen in cells or lysates may run through a third protein. Some entries that bind do so weakly or less than the wild type.

The experiment concerns the target IL-3 receptor α (IL-3Rα), endogenous in TF-1 cells (human (endogenous in TF-1)) (UniProt P26951). In words: co-IP; endogenous co-IP from TF-1 lysates (cells starved overnight, untreated or IL-3 20 ng/mL for the indicated times); immunoprecipitated with anti-IL-3Rα or control mouse IgG, blotted with anti-MARCH3; NP-40 lysis buffer, washes with 500 mM NaCl.

B1: MARCH3 (membrane-associated RING-CH-type finger 3), endogenous in TF-1 cells (enzyme, UniProt Q86UD3 1-253)
chain: MTTSRCSHLPEVLPDCTSSAAPVVKTVEDCGSLVNGQPQYVMQVSAKDGQLLSTVVRTLATQSPFNDRPMCRICHEGSSQEDLLSPCECTGTLGTIHRSCLEHWLSSSNTSYCELCHFRFAVERKPRPLVEWLRNPGPQHEKRTLFGDMVCFLFITPLATISGWLCLRGAVDHLHFSSRLEAVGLIALTVALFTIYLFWTLVSFRYHCRLYNEWRRTNQRVILLIPKSVNVPSNQPSLLGLHSVKRNSKETVV
As to B1, the binding entry is on record as “binds”.
